PubChem BioAssay AID493014 (National Center for Advancing Translational Sciences (NCATS), 2011)
About 170 (0.05%) of roughly 340,000 compounds were called active. This list was built around the results that the source calls inconclusive (neither active nor inactive); the mix of calls is not that of the screen. Calls follow the shape of the dose curve; as a rule, active = well fitted inhibition curve with a large enough effect in the signal ratio, with a control signal flat (not every such curve was filed as active); inconclusive = small, poorly fitted or top-dose-only effect, or effect the other way, or a change in a side signal; inactive = flat fitted curve, though single readings scatter; the % refers to the signal ratio. Potencies of inconclusive entries are doubtful fits and often do not repeat.

Assay: qHTS Assay to Find Inhibitors of Chronic Active B-Cell Receptor Signaling;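 as to activity change, negative = inhibition: plate controls were basal doxycycline-induced cells for no effect and cells given 10 µM MG132 for full effect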
Conditions: ABC-DLBCL IkBa-CBG/CBR reporter, luminescence ratio (green luciferase fused to IkBa over red control in TMD8 lymphoma cells), 4 h; activity change, negative = inhibition: at 46.1 µM (top of the series)
Outline: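 Doxycycline induced both beetle luciferases in TMD8 lymphoma cells; IKK-driven degradation limits the IkappaBalpha-fused green signal, while red luminescence normalises for cell number and nonspecific effects. Compounds tested up to 46 uM, 4 hrs.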
Potency is read from the fitted curve at half-maximal effect.

Question: With `CCN(CC)C(=O)CSc1nnc(SC(C)C(=O)NC2CC2)s1` (stereo unspecified) as the molecule, how does the activity change, negative = inhibition read?
Answer: Its activity change, negative = inhibition is inconclusive: -1.48%.

Question: Which activity change, negative = inhibition does the source give for `CC(C)C(=O)Nc1ccc(NC(=O)c2ccco2)cn1` here?
Answer: The activity change, negative = inhibition was inconclusive: 7.19%.

Question: Which activity change, negative = inhibition does the source give for `CCOc1ccc(CCNC(=O)c2cc(=O)[nH]c3ccc(S(=O)(=O)N4CCCCC4)cc23)cc1OCC` here?
Answer: Its activity change, negative = inhibition is inconclusive: 2.3%.

Question: With `Cc1cc(Sc2nnc(/N=C/N(C)C)s2)c2ccccc2n1` as the molecule, how does the Potency read?
Answer: Its Potency is inconclusive: 0.708 µM [falling, full curve, poor fit].

Question: With `O=C(Cc1c(F)cccc1Cl)NNC(=O)c1ccco1` as the molecule, how does the activity change, negative = inhibition read?
Answer: Its activity change, negative = inhibition is inconclusive: 5.7%.

Question: With `CCN1C(=O)c2cccc3c(S(=O)(=O)Nc4ccncc4)ccc1c23` as the molecule, how does the Potency read?
Answer: The Potency was inconclusive: 29.1 µM [falling, single point].

Question: For `COc1ccc(NC(=O)c2ccc3ccccc3n2)cc1S(=O)(=O)N1CCCCC1`, which activity change, negative = inhibition is on record?
Answer: Its activity change, negative = inhibition is “inactive”.

Question: For `C=CCn1c(SCC(=O)OCc2ccccc2)nc2c1c(=O)n(C)c(=O)n2C`, which activity change, negative = inhibition is on record?
Answer: The activity change, negative = inhibition was inconclusive: 20.6%.

Question: With `CCCn1ccc2c(OCC(=O)Nc3ccc(NC(C)=O)cc3)cccc2c1=O` as the molecule, how does the activity change, negative = inhibition read?
Answer: Its activity change, negative = inhibition is inconclusive: -1.27%.

Question: For `N=c1n(CCN2CCCCC2)c2ccccc2n1CC(O)c1ccco1` (stereo unspecified), which activity change, negative = inhibition is on record?
Answer: The activity change, negative = inhibition was inconclusive: -10.4%.

Question: For `Cc1cc(SCC2=NNC(=O)C2)c(Cl)cc1Cl`, which activity change, negative = inhibition is on record?
Answer: Its activity change, negative = inhibition is “inactive”.

Question: For `CCCCN(CC)Cc1c(O)ccc2c3c(c(=O)oc12)CCC3`, which activity change, negative = inhibition is on record?
Answer: The activity change, negative = inhibition was inconclusive: 2.87%.

Question: With `COc1ccc(C(C)(C)C)cc1NC(=O)COC(=O)c1nc2nccc(C)n2n1` as the molecule, how does the activity change, negative = inhibition read?
Answer: The activity change, negative = inhibition was inconclusive: 5.65%.

Question: Which activity change, negative = inhibition does the source give for `COc1ccc(CCNc2ncnc3[nH]ncc23)cc1OC` here?
Answer: Its activity change, negative = inhibition is inconclusive: 6.2%.

Question: Which activity change, negative = inhibition does the source give for `CCc1nc2ccc(C(=O)NCc3ccco3)cc2nc1CC` here?
Answer: Its activity change, negative = inhibition is inconclusive: 3.82%.

Question: For `Clc1ccc(N=c2ssnc2Cl)nc1`, which activity change, negative = inhibition is on record?
Answer: The activity change, negative = inhibition was inconclusive: 0.8%.

Question: With `CCn1c(O)c(/C=C/C=C/C=Nc2ccccc2)sc1=S` as the molecule, how does the activity change, negative = inhibition read?
Answer: The activity change, negative = inhibition was “inactive”.

Question: For `CC(=O)COc1cccc2ccc(/C=C/c3ccc(Br)s3)nc12`, which activity change, negative = inhibition is on record?
Answer: The activity change, negative = inhibition was inconclusive: 271% [cytotoxic].

Question: With `Cc1ccc(-n2nc(C(=O)N3CCOCC3)cc2-c2ccc(Cl)cc2)cc1` as the molecule, how does the Potency read?
Answer: Its Potency is inconclusive: 18.4 µM [falling, partial curve, poor fit].

Question: With `Cc1ccc(C(=O)CNc2cccc(Cl)c2)cc1` as the molecule, how does the activity change, negative = inhibition read?
Answer: The activity change, negative = inhibition was inconclusive: 8.31%.

Question: With `CCN(CC)C(=O)C(=O)Nc1cccc(Br)c1` as the molecule, how does the activity change, negative = inhibition read?
Answer: The activity change, negative = inhibition was inconclusive: -14.6%.

Question: For `CCN(CC)C(=O)Oc1ccc2ccccc2c1Br`, which Potency is on record?
Answer: The Potency was inconclusive: 5.62 µM [rising, partial curve, poor fit].

Question: Which Potency does the source give for `Nc1nc2ccccc2n1CCOc1ccccc1Cl` here?
Answer: Its Potency is inconclusive: 25.1 µM [falling, single point].

Question: Which Potency does the source give for `O=C(c1ccc2oc(CCCc3ccccc3)nc2c1)N1CCCC1` here?
Answer: Its Potency is inconclusive: 20 µM [falling, single point].

Question: Which activity change, negative = inhibition does the source give for `COc1ccc(-n2nc(C(=O)NCC(=O)N3CCCCCC3)c3ccccc3c2=O)cc1` here?
Answer: Its activity change, negative = inhibition is “inactive”.

Question: For `CC(C)(C)NC(=O)NC(=O)CSc1ccc(S(=O)(=O)N2CCCCC2)cn1`, which activity change, negative = inhibition is on record?
Answer: The activity change, negative = inhibition was inconclusive: 1.78%.

Question: For `O=C(CSc1nnc(CNc2ccccc2)o1)c1ccc2c(c1)OCCO2`, which activity change, negative = inhibition is on record?
Answer: Its activity change, negative = inhibition is inconclusive: 27.7%.

Question: With `Cc1ccccc1NCCC(=O)Nc1ccc(Cl)cc1` as the molecule, how does the activity change, negative = inhibition read?
Answer: The activity change, negative = inhibition was “inactive”.

Question: For `COc1ccc(/C=N/n2cnc3c([nH]c4ccccc43)c2=O)cc1COc1ccccn1`, which activity change, negative = inhibition is on record?
Answer: Its activity change, negative = inhibition is inconclusive: -9.56%.

Question: With `Oc1ccc(/C=N/n2cc(-c3ccccc3)[nH]c2=S)cc1` as the molecule, how does the activity change, negative = inhibition read?
Answer: The activity change, negative = inhibition was “inactive”.

Question: Which activity change, negative = inhibition does the source give for `CCCCc1c(C)[nH]c(C(=O)OCC)c1C` here?
Answer: Its activity change, negative = inhibition is inconclusive: -21.6%.

Question: With `Oc1c(C(c2ccccc2)N2CCC(O)CC2)sc2nc(-c3ccco3)nn12` (stereo unspecified) as the molecule, how does the activity change, negative = inhibition read?
Answer: The activity change, negative = inhibition was inconclusive: -13.7%.

Question: With `Nc1ccccc1Nc1cc(-c2ccccc2)[nH]n1` as the molecule, how does the Potency read?
Answer: The Potency was inconclusive: 5.62 µM [falling, single point].

Question: With `COc1ccccc1CNC(=O)CSCc1cnn(-c2ccccc2)c1-n1cccc1` as the molecule, how does the activity change, negative = inhibition read?
Answer: The activity change, negative = inhibition was “inactive”.

Question: For `CCOC(=O)C(Sc1cc(-c2ccccc2)nc2ncnn12)C(C)=O` (stereo unspecified), which activity change, negative = inhibition is on record?
Answer: Its activity change, negative = inhibition is inconclusive: -1.54%.

Question: With `O=C(CSc1cccc2cccnc12)N1CCCC1` as the molecule, how does the activity change, negative = inhibition read?
Answer: Its activity change, negative = inhibition is “inactive”.

Question: For `CC1CN(C2CCN(C(=O)c3cccc(Cl)c3)CC2)CC(C)O1` (stereo unspecified), which activity change, negative = inhibition is on record?
Answer: Its activity change, negative = inhibition is inconclusive: 3.67%.

Question: With `Cc1onc(-c2ccccc2Cl)c1C(=O)Nc1ccccc1O` as the molecule, how does the activity change, negative = inhibition read?
Answer: Its activity change, negative = inhibition is “inactive”.

Question: Which Potency does the source give for `CCn1ccc2c(OCC(=O)Nc3ccccc3C(F)(F)F)cccc2c1=O` here?
Answer: Its Potency is inconclusive: 2.51 µM [falling, partial curve, poor fit].

Question: For `Cc1nn(C)c(C)c1CN(Cc1nc(-c2cc(F)ccc2F)oc1C)C1CC1`, which activity change, negative = inhibition is on record?
Answer: Its activity change, negative = inhibition is inconclusive: -17%.

Question: With `Cc1nc(CS(=O)(=O)c2ccc(Cl)cc2)sc1C(=O)O` as the molecule, how does the Potency read?
Answer: The Potency was inconclusive: 17.8 µM [falling, partial curve, poor fit].

Question: With `Cc1ccc(NNC(=O)C(O)(c2cccc(C(F)(F)F)c2)c2cccc(C(F)(F)F)c2)cc1` as the molecule, how does the activity change, negative = inhibition read?
Answer: Its activity change, negative = inhibition is inconclusive: -6.84%.

Question: With `Cc1cc(-c2ccc(C(C)C)c(S(=O)(=O)N3CC(=O)Nc4ccccc43)c2)on1` as the molecule, how does the Potency read?
Answer: Its Potency is inconclusive: 15.8 µM [falling, partial curve, poor fit].

Question: Which Potency does the source give for `CCn1c2ccccc2c2cc(NC(=O)c3ccc(Br)o3)ccc21` here?
Answer: Its Potency is inconclusive: 25.9 µM [falling, single point].

Question: Which Potency does the source give for `COC(=O)c1ccc(NC(=O)c2cccc(N3C(=O)CCC3=O)c2)cc1` here?
Answer: The Potency was inconclusive: 23.1 µM [falling, partial curve].

Question: With `O[C@@H](c1cc(C(F)(F)F)nc2c(C(F)(F)F)cccc12)[C@H]1CCCCN1` as the molecule, how does the Potency read?
Answer: Its Potency is inconclusive: 2.91 µM [rising, full curve, poor fit].

Question: With `CN(C)C(=O)c1ccc(Nc2ncnc3sc4c(c23)CCCCC4)cc1` as the molecule, how does the activity change, negative = inhibition read?
Answer: The activity change, negative = inhibition was inconclusive: -11.2%.

Question: For `COc1ccc(Cn2nnnc2C(c2cc3ccc(OC)cc3[nH]c2=O)N2CCC(C)CC2)cc1` (stereo unspecified), which Potency is on record?
Answer: The Potency was inconclusive: 25.9 µM [falling, partial curve, poor fit].

Question: With `N#C/C(=C/c1ccc2c(c1)OCO2)C(=O)NCCc1c[nH]c2ccccc12` as the molecule, how does the Potency read?
Answer: The Potency was inconclusive: 29.1 µM [falling, single point].

Question: Which activity change, negative = inhibition does the source give for `COC(=O)C(NC(=O)c1ccccc1)(Nc1cc(C)cc(C)n1)C(F)(F)F` (stereo unspecified) here?
Answer: The activity change, negative = inhibition was inconclusive: -8.92%.

Question: With `CN1CCN(CCCNC(=O)c2ccc(/C=C3\Sc4ccccc4N(Cc4ccc(F)cc4)C3=O)cc2)CC1` as the molecule, how does the Potency read?
Answer: The Potency was inconclusive: 20 µM [falling, single point].
